These are yes or no findings as the source states them, for the method shown. Some binding calls cover weakened binding; strength is not graded here.
T1: human ATG2A, full length (human), Q2TAZ0
T1 chain: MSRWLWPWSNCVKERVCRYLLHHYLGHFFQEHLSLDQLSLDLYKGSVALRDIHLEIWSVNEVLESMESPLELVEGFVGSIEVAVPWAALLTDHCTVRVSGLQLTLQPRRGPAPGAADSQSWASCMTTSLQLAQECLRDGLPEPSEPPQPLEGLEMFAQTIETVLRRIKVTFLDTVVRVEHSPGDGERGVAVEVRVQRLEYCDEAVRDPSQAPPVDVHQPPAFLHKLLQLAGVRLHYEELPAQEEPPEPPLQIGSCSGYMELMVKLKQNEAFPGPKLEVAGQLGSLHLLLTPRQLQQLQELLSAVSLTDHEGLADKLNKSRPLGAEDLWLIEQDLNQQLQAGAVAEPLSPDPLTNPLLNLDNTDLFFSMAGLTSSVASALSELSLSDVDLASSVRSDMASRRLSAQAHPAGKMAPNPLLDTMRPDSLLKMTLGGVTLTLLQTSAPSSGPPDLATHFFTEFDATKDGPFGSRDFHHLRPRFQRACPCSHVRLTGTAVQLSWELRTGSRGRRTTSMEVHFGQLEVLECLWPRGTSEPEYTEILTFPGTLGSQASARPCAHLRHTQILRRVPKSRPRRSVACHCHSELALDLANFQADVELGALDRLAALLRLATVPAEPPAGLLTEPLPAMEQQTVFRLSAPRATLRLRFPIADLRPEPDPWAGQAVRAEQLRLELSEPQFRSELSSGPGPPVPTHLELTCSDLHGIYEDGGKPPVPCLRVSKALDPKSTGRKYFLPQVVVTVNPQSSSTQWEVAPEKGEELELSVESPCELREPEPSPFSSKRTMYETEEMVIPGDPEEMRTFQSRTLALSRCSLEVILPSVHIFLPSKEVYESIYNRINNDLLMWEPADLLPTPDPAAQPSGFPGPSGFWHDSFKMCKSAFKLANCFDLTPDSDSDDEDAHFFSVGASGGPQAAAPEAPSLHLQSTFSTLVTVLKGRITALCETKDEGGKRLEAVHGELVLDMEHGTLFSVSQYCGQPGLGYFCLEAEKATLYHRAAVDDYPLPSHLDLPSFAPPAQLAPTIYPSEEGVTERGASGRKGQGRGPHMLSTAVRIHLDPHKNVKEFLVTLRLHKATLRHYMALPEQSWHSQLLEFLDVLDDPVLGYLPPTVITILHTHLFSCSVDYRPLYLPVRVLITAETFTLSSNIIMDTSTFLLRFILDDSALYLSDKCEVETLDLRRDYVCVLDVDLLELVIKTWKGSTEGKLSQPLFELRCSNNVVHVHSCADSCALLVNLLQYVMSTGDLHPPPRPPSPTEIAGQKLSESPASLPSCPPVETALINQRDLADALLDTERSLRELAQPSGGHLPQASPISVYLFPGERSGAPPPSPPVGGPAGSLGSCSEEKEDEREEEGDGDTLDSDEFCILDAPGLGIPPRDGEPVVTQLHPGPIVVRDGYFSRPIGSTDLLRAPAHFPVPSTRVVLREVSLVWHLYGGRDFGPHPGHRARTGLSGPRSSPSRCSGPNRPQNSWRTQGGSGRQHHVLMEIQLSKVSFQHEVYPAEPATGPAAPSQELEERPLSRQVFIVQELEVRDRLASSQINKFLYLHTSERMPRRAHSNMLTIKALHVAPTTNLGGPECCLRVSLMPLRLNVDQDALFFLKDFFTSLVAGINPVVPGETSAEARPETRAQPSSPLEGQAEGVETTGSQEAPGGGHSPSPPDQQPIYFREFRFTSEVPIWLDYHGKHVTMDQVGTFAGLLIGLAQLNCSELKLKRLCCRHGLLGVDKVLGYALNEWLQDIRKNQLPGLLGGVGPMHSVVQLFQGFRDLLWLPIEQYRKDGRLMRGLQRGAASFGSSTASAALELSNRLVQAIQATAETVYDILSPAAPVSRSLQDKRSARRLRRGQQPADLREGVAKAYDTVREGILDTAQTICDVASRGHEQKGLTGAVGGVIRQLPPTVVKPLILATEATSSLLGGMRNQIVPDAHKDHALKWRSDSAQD


Legend:
[1] = target: human ATG2A, full length (human) (UniProt Q2TAZ0); experiment: cross-linking
[2] = target: human ATG2A, full length (human) (UniProt Q2TAZ0); experiment: cryo-EM structure
[3] = target: human ATG2A, full length (human) (UniProt Q2TAZ0); experiment: cryo-electron tomography
[4] = target: human ATG2A, full length (human) (UniProt Q2TAZ0); experiment: cryo-EM structure; remark: listed apart in the source
[5] = target: human ATG2A, full length (human) (UniProt Q2TAZ0); experiment: cryo-EM structure; remark: listed apart in the source
[6] = target: T1, human ATG2A, full length (human), Q2TAZ0; experiment: pull-down; conditions: remark: other sources report otherwise

binding [1]	binding [2]	binding [3]	binding [4]	binding [5]	binding [6]	Binder
binds	binds	binds	binds	binds	–	WIPI4 (protein, UniProt Q9Y484 1-360) MTQQPLRGVTSLRFNQDQSCFCCAMETGVRIYNVEPLMEKGHLDHEQVGSMGLVEMLHRSNLLALVGGGSSPKFSEISVLIWDDAREGKDSKEKLVLEFTFTKPVLSVRMRHDKIVIVLKNRIYVYSFPDNPRKLFEFDTRDNPKGLCDLCPSLEKQLLVFPGHKCGSLQLVDLASTKPGTSSAPFTINAHQSDIACVSLNQPGTVVASASQKGTLIRLFDTQSKEKLVELRRGTDPATLYCINFSHDSSFLCASSDKGTVHIFALKDTRLNRRSALARVGKVGPMIGQYVDSQWSLASFTVPAESACICAFGRNTSKNVNSVIAICVDGTFHKYVFTPDGNCNREAFDVYLDICDDDDF
–	–	–	–	–	binds	GABARAP, O95166 1-117 (protein) MKFVYKEEHPFEKRRSEGEKIRKKYPDRVPVIVEKAPKARIGDLDKKKYLVPSDLTVGQFYFLIRKRIHLRAEDALFFFVNNVIPPTSATMGQLYQEHHEEDFFLYIAYSDESVYGL

— publication doi:10.1101/2023.07.08.548186
